Results reported in publication PMC6399282.
Results are given in words; binding and its absence hold for the method and conditions named. In cells and extracts the contact can be indirect. Some results given as binding are weak or reduced against the parent protein; the word gives no strength.

Sequences of proteins named here, by UniProt entry; tags and fusion partners are left off.
UniProt P23443: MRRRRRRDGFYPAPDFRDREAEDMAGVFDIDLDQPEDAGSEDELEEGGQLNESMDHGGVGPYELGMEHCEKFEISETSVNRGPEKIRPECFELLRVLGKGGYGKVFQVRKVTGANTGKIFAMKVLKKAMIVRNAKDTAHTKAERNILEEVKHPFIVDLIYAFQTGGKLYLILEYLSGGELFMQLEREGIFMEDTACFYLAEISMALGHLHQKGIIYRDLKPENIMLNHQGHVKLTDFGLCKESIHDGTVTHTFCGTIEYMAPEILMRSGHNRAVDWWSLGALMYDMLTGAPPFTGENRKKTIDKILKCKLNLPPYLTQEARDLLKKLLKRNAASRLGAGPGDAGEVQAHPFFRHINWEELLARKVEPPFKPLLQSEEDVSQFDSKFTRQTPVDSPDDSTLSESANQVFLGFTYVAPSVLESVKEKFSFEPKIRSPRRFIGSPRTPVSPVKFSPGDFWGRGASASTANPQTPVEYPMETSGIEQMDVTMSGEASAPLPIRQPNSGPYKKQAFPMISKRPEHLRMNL
UniProt Q8N122: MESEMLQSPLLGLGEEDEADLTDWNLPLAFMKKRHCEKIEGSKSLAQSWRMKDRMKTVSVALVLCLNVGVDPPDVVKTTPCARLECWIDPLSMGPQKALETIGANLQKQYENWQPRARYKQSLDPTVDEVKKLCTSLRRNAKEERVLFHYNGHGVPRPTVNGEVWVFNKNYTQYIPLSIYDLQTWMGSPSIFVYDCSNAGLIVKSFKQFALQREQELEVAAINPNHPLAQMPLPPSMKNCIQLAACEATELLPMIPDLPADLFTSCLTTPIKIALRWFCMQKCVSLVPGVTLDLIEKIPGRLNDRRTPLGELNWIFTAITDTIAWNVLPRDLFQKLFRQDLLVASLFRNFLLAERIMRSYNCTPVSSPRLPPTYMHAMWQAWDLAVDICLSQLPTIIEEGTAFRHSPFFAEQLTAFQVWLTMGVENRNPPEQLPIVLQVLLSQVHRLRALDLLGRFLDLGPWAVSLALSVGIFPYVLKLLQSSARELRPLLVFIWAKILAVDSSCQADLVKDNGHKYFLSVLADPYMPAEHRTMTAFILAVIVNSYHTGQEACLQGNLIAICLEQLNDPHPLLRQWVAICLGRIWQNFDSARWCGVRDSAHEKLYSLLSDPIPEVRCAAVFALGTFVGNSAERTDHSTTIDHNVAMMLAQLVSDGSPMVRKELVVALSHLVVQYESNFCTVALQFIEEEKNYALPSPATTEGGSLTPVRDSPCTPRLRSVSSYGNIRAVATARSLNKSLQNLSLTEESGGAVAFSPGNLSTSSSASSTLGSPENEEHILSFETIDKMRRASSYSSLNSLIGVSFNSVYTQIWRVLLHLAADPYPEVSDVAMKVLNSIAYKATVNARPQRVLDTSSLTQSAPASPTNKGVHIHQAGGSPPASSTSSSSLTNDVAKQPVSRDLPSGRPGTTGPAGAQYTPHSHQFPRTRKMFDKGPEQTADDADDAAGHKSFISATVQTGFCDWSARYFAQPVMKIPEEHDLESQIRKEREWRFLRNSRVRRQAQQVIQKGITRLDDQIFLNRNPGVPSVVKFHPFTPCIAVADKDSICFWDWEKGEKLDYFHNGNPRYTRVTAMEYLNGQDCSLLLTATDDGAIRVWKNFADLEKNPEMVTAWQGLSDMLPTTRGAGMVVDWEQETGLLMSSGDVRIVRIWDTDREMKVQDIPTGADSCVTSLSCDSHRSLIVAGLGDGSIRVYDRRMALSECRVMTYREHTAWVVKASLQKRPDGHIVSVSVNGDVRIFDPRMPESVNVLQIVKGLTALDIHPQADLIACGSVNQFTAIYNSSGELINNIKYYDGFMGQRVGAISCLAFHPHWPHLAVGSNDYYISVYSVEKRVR

Key:
[1] = target: EGFP-S6K1 (containing an N-terminus His tag) (UniProt P23443); experiment: FRET or BRET; FRET-FLIM in live HEK293 cells co-expressing an EGFP-tagged donor and an mCherry-tagged acceptor; multiphoton (910 nm) or one-photon (488 nm) excitation; donor fluorescence lifetime read
[2] = target: EGFP-S6K1 (containing an N-terminus His tag) (UniProt P23443); experiment: pull-down; His-tagged EGFP-S6K1 co-expressed with partners in HEK293F cells for 72 h; lysate (50 mM HEPES pH 7.4, 150 mM NaCl, 3 mM DTT, 0.4% CHAPS) loaded on Ni-NTA resin at 4 °C, washed with 20 mM imidazole, eluted with 500 mM imidazole; Western blot
S6K1-mCherry = S6K1-mCherry (UniProt P23443); experiment: FRET or BRET; FRET-FLIM in live HEK293 cells co-expressing an EGFP-tagged donor and an mCherry-tagged acceptor; multiphoton (910 nm) or one-photon (488 nm) excitation; donor fluorescence lifetime read

| Substance | binding [1] | binding [2] | binding (S6K1-mCherry) |
| --- | --- | --- | --- |
| mCherry-raptor (from UniProt Q8N122 1-1335) | binds | binds | – |
| EGFP-Rheb (from UniProt Q15382 1-184) | – | – | no binding |
| mDsRed-Rheb (from UniProt Q15382 1-184) | – | no binding | – |
